# Laboratory results published in the supplement of paper PMC11732987, “Enantioselective OTUD7B fragment discovery through chemoproteomics screening and high-throughput optimisation” (Communications Chemistry, 2025).
# Amino acid sequences for entries named in this document (tags omitted). A change or cut given only in a name is not applied to a line headed by its entry. Residues count along the entry.
# UniProt Q9H6S0, 1255-1275: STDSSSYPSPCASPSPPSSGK
# UniProt Q9BYP7: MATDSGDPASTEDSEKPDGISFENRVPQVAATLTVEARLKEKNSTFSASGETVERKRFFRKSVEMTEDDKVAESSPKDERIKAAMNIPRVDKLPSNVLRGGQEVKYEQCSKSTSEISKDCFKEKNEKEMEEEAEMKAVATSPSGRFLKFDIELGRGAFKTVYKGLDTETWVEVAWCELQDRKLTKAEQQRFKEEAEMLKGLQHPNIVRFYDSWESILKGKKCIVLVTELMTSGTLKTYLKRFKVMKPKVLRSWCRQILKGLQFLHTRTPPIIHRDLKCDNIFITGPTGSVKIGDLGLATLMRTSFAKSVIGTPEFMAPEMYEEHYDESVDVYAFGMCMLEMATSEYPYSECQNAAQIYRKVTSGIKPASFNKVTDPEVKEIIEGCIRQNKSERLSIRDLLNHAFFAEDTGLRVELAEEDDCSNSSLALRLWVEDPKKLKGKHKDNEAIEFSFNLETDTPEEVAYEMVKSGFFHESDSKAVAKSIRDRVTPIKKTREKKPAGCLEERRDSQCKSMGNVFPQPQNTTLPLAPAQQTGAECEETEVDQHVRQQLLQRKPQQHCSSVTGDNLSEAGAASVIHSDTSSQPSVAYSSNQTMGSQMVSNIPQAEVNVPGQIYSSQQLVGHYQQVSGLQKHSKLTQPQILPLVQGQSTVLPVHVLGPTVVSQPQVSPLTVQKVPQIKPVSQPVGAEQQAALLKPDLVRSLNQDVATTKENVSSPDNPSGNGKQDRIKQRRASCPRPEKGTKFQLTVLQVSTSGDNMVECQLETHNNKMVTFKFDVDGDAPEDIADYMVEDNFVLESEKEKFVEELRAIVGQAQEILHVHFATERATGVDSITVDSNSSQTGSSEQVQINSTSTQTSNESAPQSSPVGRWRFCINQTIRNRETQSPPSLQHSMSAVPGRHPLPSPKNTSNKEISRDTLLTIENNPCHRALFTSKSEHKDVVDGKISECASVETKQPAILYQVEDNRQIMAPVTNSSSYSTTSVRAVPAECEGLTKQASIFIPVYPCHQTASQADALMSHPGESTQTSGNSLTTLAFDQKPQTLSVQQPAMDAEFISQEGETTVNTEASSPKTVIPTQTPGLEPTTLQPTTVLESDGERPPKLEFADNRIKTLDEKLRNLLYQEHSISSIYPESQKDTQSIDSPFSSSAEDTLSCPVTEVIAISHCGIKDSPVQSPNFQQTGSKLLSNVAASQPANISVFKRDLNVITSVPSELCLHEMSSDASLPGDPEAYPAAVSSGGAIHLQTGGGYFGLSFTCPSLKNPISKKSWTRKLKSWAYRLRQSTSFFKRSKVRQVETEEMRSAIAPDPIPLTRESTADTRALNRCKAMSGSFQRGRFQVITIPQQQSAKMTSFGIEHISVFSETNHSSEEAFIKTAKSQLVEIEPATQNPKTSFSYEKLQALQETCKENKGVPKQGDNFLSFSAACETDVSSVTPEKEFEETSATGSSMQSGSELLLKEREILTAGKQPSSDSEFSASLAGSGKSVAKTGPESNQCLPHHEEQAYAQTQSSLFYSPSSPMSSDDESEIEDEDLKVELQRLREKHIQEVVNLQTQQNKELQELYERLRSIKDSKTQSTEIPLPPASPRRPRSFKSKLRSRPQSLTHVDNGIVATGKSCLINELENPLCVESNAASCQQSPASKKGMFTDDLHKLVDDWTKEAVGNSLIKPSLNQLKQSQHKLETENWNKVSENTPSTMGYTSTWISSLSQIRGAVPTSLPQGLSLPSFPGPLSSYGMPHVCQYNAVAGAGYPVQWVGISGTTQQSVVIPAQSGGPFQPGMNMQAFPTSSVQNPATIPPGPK
# UniProt Q9NNW5: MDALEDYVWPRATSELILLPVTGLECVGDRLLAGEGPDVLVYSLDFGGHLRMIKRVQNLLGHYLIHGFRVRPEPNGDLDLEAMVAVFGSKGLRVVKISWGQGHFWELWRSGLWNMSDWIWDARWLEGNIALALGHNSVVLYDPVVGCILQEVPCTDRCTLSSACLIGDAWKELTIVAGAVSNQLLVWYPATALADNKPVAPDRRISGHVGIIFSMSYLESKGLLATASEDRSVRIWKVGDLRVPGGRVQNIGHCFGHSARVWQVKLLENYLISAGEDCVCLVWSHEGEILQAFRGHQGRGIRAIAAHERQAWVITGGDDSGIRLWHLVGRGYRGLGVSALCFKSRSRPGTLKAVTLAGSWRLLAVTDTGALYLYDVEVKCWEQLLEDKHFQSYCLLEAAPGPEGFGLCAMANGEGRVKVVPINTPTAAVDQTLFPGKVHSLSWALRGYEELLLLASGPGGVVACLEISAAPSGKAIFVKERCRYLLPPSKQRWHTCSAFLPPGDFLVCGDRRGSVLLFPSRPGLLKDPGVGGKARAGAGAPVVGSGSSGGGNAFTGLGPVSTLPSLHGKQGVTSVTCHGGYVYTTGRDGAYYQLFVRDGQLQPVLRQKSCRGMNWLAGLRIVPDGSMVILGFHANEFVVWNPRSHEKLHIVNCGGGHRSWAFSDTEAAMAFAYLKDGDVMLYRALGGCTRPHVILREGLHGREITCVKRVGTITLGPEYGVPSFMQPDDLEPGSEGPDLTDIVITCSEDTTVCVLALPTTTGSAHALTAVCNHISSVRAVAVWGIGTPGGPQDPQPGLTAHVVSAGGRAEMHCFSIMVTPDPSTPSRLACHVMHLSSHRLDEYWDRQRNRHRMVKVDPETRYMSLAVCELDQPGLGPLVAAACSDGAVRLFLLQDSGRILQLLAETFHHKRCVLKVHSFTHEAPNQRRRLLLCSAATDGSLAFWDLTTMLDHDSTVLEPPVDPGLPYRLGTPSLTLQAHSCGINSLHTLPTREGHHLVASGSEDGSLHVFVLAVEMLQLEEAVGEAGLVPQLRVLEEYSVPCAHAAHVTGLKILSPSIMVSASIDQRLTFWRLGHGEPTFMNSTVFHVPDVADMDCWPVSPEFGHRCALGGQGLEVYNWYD
# UniProt Q9H6R7: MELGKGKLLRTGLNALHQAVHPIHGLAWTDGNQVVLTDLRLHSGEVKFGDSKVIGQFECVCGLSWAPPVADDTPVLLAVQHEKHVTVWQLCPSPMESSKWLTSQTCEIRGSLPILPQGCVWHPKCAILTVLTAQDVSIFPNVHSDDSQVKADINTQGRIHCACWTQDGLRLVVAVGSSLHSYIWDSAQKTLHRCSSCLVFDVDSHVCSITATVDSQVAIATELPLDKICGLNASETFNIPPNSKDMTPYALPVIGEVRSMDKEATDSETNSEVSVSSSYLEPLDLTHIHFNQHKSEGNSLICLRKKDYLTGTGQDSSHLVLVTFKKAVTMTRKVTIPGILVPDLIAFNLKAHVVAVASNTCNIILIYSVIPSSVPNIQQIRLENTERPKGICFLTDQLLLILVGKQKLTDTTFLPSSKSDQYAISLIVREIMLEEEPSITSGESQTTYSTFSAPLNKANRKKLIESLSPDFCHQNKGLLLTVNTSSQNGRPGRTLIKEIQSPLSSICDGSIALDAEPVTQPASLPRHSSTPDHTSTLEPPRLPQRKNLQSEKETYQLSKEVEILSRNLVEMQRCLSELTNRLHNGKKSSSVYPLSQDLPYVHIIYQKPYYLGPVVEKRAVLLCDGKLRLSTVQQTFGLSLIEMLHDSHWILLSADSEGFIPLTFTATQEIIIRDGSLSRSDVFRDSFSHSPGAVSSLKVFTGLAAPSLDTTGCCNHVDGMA
# UniProt P27348: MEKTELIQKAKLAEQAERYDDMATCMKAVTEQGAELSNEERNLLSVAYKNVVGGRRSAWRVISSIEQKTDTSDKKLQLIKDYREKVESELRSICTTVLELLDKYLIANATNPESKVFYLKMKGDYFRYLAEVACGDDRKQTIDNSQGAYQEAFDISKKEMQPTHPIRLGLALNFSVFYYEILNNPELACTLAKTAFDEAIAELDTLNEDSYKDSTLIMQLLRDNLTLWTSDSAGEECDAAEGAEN
# UniProt Q8IV63, 175-197: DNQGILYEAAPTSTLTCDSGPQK
# UniProt Q8NCP5: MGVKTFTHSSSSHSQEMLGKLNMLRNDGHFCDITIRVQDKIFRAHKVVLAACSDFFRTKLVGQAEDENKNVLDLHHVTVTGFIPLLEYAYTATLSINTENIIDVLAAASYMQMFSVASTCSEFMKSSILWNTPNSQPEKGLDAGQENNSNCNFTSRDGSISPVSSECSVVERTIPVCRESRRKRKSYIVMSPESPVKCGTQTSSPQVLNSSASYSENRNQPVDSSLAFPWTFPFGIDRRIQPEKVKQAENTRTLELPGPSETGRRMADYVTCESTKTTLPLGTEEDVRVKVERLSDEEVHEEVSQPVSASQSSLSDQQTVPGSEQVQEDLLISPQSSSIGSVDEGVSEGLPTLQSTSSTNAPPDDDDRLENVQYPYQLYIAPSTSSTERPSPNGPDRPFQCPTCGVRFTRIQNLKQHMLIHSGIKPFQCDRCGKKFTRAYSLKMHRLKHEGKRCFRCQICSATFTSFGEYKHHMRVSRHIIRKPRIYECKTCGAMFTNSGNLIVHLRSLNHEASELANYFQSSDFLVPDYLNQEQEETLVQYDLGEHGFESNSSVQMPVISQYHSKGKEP
# UniProt A8MPS7: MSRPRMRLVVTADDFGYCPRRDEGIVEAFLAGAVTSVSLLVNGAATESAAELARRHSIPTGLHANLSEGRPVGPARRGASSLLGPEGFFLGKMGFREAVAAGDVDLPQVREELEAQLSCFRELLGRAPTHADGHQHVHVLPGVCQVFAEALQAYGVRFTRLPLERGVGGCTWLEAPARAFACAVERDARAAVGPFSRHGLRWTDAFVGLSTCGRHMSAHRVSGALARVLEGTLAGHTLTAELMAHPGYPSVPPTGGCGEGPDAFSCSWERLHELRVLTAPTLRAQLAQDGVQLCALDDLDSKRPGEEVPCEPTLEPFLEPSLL
# UniProt Q9UID3: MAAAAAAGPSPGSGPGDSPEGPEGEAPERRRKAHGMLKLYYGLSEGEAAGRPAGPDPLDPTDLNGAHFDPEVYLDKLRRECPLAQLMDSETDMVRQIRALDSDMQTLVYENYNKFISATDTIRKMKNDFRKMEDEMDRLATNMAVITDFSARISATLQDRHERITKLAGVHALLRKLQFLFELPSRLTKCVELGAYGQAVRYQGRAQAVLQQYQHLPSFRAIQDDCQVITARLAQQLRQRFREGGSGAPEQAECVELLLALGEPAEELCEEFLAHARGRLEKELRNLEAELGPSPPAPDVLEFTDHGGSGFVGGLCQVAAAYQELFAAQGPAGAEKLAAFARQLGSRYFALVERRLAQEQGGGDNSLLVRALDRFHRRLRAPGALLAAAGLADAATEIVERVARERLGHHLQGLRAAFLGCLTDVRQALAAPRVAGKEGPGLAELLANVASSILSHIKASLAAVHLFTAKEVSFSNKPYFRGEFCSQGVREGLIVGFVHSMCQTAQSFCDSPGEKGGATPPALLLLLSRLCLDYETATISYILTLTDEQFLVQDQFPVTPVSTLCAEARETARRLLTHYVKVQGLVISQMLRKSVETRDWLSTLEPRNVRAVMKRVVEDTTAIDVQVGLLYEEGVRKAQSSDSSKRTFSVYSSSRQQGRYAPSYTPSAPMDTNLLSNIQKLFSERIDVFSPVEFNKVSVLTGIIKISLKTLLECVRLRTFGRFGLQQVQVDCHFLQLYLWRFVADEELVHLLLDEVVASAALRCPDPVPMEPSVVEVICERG
# UniProt Q8NI36: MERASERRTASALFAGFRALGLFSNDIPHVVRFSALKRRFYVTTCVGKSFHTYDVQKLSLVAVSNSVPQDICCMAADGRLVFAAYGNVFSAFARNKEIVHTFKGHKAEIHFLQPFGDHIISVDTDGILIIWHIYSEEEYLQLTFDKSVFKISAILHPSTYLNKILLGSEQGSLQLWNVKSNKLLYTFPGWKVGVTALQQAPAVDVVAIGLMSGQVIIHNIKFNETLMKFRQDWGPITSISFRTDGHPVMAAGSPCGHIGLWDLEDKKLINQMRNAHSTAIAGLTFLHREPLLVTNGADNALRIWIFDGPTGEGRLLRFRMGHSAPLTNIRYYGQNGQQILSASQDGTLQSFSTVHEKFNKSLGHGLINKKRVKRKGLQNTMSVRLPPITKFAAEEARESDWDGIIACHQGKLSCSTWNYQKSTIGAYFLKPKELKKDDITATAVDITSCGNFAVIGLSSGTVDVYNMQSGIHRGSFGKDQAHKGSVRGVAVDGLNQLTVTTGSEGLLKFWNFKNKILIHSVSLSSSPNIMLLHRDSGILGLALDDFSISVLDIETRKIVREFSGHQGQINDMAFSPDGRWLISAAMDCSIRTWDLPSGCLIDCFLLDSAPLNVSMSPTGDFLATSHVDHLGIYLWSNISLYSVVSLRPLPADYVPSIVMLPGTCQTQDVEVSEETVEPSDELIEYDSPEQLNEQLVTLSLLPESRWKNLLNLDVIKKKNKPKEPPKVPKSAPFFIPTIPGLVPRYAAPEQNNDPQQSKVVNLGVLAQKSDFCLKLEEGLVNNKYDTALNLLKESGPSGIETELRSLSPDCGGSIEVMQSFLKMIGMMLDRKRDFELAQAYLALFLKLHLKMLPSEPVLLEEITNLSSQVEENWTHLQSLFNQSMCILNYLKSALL
# This is one part of the list. The data scatter; read single values as rough.
# Legend:
# [1] = compound: ClCC(=O)N[C@@H]1CCCc2ccccc12; assay: log2 mean competition ratio of IA-DTB cysteine labelling (DMSO/compound) (log2 ratio); higher = stronger cysteine engagement by compound; conditions: treatment time: 4 h, cell line lysate: HEK293T
# Protocol: (§1)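 IA-DTB competitive cysteine chemoproteomics in HEK293T RIPA lysate. Lysates were treated with compound 29 or 30 at 50 or 200 µM for 4 h, then IA-DTB (500 µM, 1 h), trypsin-digested, NeutrAvidin-enriched and analysed by diaPASEF. Competition ratio = intensity DMSO / intensity compound (n=4 treated, n=64 DMSO); binding: mean log2 CR ≥ 1 and p ≤ 0.05 plus QC filters. Target is the cysteine site.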
# [2] = compound: ClCC(=O)N[C@H]1CCCc2ccccc12; assay: as above; conditions: treatment time: 4 h, cell line lysate: HEK293T
# Protocol: as §1
Target,log2 mean competition ratio ([1]; 50 µM),log2 mean competition ratio ([1]; 200 µM),log2 mean competition ratio ([2]; 50 µM),log2 mean competition ratio ([2]; 200 µM)
YTHDC2 C1265 (UniProt Q9H6S0),-0.118,0.1,-0.168,-0.0101
WDR33 C249 (UniProt Q9C0J8),-0.179,0.0945,-0.705,-0.046
VPS35L C214 (UniProt Q7Z3J2),-0.182,-0.273,-0.219,-0.16
WNK3 C949 (UniProt Q9BYP7),0.0521,-0.00235,-0.0775,0.0328
XPO5 C419 (UniProt Q9HAV4),0.0735,0.106,-0.0384,0.111
ZBED4 C916 (UniProt O75132),0.0338,0.158,-0.0491,0.0483
WDR6 C26 (UniProt Q9NNW5),0.11,-0.0254,0.0434,0.0297
ZC3H7A C575 (UniProt Q8IWR0),0.421,-0.184,0.646,-0.493
WDCP C574 (UniProt Q9H6R7),0.0796,-0.0226,-0.107,-0.0917
WASHC5 C969 (UniProt Q12768),-0.216,0.311,0.402,0.593
VPS41 C638 (UniProt P49754),-0.124,0.863,-0.136,0.659
WDR43 C315 (UniProt Q15061),0.0967,-0.00183,-0.0966,-0.149
YWHAQ C134 (UniProt P27348),-0.163,-0.173,-0.0909,-0.0411
WDHD1 C180 (UniProt O75717),-0.267,-0.179,0.374,0.109
WDR19 C846 (UniProt Q8NEZ3),0.0314,0.0162,-0.0274,0.056
VPS35 C640,-0.172,0.464,-0.713,0.247
WNK3 C1406 (UniProt Q9BYP7),-0.103,0.0491,0.253,0.0959
WNK2 C411 (UniProt Q9Y3S1),0.348,0.0565,0.565,0.0837
WEE1 C19 (UniProt P30291),0.233,0.0711,0.183,0.0558
ZC3H7A C594 (UniProt Q8IWR0),-0.0043,0.0386,-0.362,-0.151
YARS1 C250,0.223,-0.0363,0.0807,-0.0551
WDR83 C23 (UniProt Q9BRX9),0.108,-0.0534,-0.0621,0.039
XPO1 C164 (UniProt O14980),-0.0243,0.0803,0.141,0.111
VPS72 C292 (UniProt Q15906),0.136,0.0288,0.289,-0.138
VRK3 C191 (UniProt Q8IV63),-0.235,0.55,-0.117,0.233

Target,log2 mean competition ratio ([1]; 50 µM),log2 mean competition ratio ([1]; 200 µM),log2 mean competition ratio ([2]; 50 µM),log2 mean competition ratio ([2]; 200 µM)
ZBTB44 C272 (UniProt Q8NCP5),-0.112,-0.101,0.0246,-0.113
YDJC C182 (UniProt A8MPS7),-0.0796,0.135,0.163,0.0848
WDR59 C888 (UniProt Q6PJI9),-0.194,-0.142,-0.0386,-0.158
XIAP C213 (UniProt P98170),0.135,0.0231,-0.174,0.0874
YARS1 C501,,,0.0439,0.0824
WDR59 C865 (UniProt Q6PJI9),,,-0.0636,0.0212
XPO5 C736 (UniProt Q9HAV4),,,0.371,-0.0526
XPO7 C606,,,-0.0372,0.0752
WDR11 C1071 (UniProt Q9BZH6),,,-0.518,-0.534
WDFY3 C896 (UniProt Q8IZQ1),,,-0.347,-0.00622
VPS35 C286,,,-0.202,-0.217
WNK2 C1153 (UniProt Q9Y3S1),,,0.401,-0.00271
WASHC5 C1064 (UniProt Q12768),,,0.104,0.0537
ZC3H12A C103 (UniProt Q5D1E8),,,-0.152,-0.364
VPS51 C226 (UniProt Q9UID3),,,-0.133,0.0473
VPS50 C218 (UniProt Q96JG6),,,0.19,0.0182
XPO7 C15,,,-0.269,0.144
YDJC C119 (UniProt A8MPS7),,,-0.432,0.0275
ZBTB21 C152 (UniProt Q9ULJ3),,,0.447,-0.0309
WDFY3 C575 (UniProt Q8IZQ1),,,0.427,0.00153
WDR36 C463 (UniProt Q8NI36),,,-0.667,-0.083
XPO1 C528 (UniProt O14980),,,-0.0186,-0.218
XPO6 C299 (UniProt Q96QU8),,,-0.398,0.736
WDR12 C97 (UniProt Q9GZL7),,,-0.174,-0.222
XPO4 C796 (UniProt Q9C0E2),,,-0.455,-0.0206

# An excerpt from above, reduced to log2 mean competition ratio ([1]; 50 µM), log2 mean competition ratio ([2]; 200 µM) and log2 mean competition ratio ([1]; 200 µM):
Target | log2 mean competition ratio ([1]; 50 µM) | log2 mean competition ratio ([2]; 200 µM) | log2 mean competition ratio ([1]; 200 µM)
YDJC C119 (UniProt A8MPS7) |  | 0.0275 | 
ZBTB21 C152 (UniProt Q9ULJ3) |  | -0.0309 | 
WDFY3 C575 (UniProt Q8IZQ1) |  | 0.00153 | 
